Results deposited as PubChem BioAssay AID686937 (Drosophila RNAi Screening Center, 2013).
Screen: 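Genes whose loss weakens secretory pathway function in fly cells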 (primary screen). Cells: Drosophila S2 cells expressing secreted horseradish peroxidase. Reagents: long dsRNA against Drosophila genes. Time to read-out: about 5.5 days (5 days dsRNA, then 12 h reporter induction). Conditions: reporter expression induced after 5 days of dsRNA, read 12 h later; inducer not stated. Measured: 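Chemiluminescent measurement of peroxidase in the medium 12 h after reporter induction, following 5 days of dsRNA, given as a z-score per plate; higher means more secretion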. Direction: z-score: higher = more reporter secreted into medium.
The screen tested about 23,000 reagents; below is an unselected part of those with a known target gene and a result. 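Reduced-secretion tags in replicate 1 do not always agree with the z-scores; no criterion for assigning the tags was given.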 Names joined by + are all predicted targets of the reagent. Further read-outs or replicates are left out here. No sequences are given here. Not given: the amount of reagent.

predicted target | dsRNA | z-score, replicate 1
agt | DRSC12611 | 0.19
CG40341 (retired record) | DRSC01767 | -2.27
CG40341 (retired record) | DRSC03750 | -1.9
CG4842 | DRSC10453 | 0.01
CG5882 | DRSC15907 | -0.2
CG34286 | DRSC13372 | 0.07
CG34286 | DRSC21790 | -0.78
Nek2 | DRSC18124 | 0.06
CG13375 | DRSC18621 | 0.46
sn | DRSC18834 | 0.35
cert | DRSC09674 | 0.18
Rh4 | DRSC11268 | 0.31
Lgr4 | DRSC18969 | 0.09
Lgr4 | DRSC18970 | 0.43
Lgr4 | DRSC19884 | 0.32
CG3335 | DRSC10358 | -0.15
CG43327 + CG43328 | DRSC05640 | 0.29
zye | DRSC11784 | 0.3
Taz | DRSC07704 | -0.29
Taz | DRSC22625 | -2.4
CG17658 | DRSC04292 | 0.53
EloC | DRSC07423 | -1.51
kek3 | DRSC03553 | 0.51
kek3 | DRSC22830 | -0.27
Or33c | DRSC03388 | 0.5
CG30159 | DRSC04981 | 0.17
Fs(2)Ket | DRSC03328 | -7.69
jumu | DRSC16651 | -0.89
CG42816 | DRSC11230 | 0.19
Atg14 | DRSC14421 | 0.19
Ltn1 | DRSC11056 | 0.23
Ltn1 | DRSC11058 | 0.21
CG8152 | DRSC07083 | 0.32
CG5439 | DRSC02861 | 0.43
CG7255 | DRSC10790 | 0.43
CG5171 | DRSC02823 | 0.15
CG32772 | DRSC18052 | 0.48
CG32772 | DRSC18406 | 0.29
CG32772 | DRSC22349 | -0.27
Aos1 | DRSC14113 | -0.06
Ipp | DRSC16718 | 0.56
fwd | DRSC08580 | 0.13
Lst | DRSC07146 | 0.15
l(3)04053 | DRSC11640 | -1.11
Wdfy2 | DRSC02822 | 0.24
CG14834 | DRSC10204 | 0.2
Pgm1 | DRSC10490 | 0.27
CG5906 | DRSC10557 | -0.11
CG3558 | DRSC00615 | 0.31
CG18343 | DRSC06726 | 0.27
CG13559 | DRSC04197 | 0.06
mei-P22 | DRSC11366 | 0.28
CG12716 | DRSC19493 | 0.45
Cyp9b2 | DRSC07390 | -0.05
CG3634 | DRSC11747 | 0.27
Uba1 | DRSC07567 | -0.19
Dys | DRSC13360 | 0.4
Dys | DRSC13364 | -0.28
Dys | DRSC15260 | 0.41
Dys | DRSC16218 | 0.28
Dys | DRSC16219 | 0.28
Dys | DRSC16220 | 0.24
Dys | DRSC16935 | 0.2
Prosbeta6 | DRSC11256 | -4.61
CG8677 | DRSC03107 | 0.37
Trim9 | DRSC02242 | 0.23
Cyp313a4 | DRSC16627 | 0.25
CG18278 + CG30059 | DRSC05418 | 0.55
Inx2 | DRSC18783 | 0.29
Hcs | DRSC12070 | 0.24
Hcs | DRSC12256 | 0.17
Cpr47Eb | DRSC06345 | 0.29
mRpS7 | DRSC02814 | 0.11
SP | DRSC09664 | 0.35
sage | DRSC14580 | -0.5
sip3 | DRSC15402 | -0.47
CG17261 | DRSC00498 | -0.21
Usp14 | DRSC02853 | 0.37
ix | DRSC06325 | 0.2
CIA30 | DRSC16266 | 0.28
CG6508 | DRSC02963 | -0.04
CG42795 | DRSC12772 | 0.45
CG42795 | DRSC15533 | 0.29
CG32061 | DRSC22605 | 0.26
CG10694 | DRSC14263 | 0.4
CG11456 | DRSC11665 | 0.33
ninaE | DRSC17014 | 0.41
CG16775 | DRSC10225 | 0.37
CG14515 | DRSC14867 | 0.33
CG31230 | DRSC22130 | -0.02
Trissin | DRSC14994 | 0.4
CG15912 | DRSC18105 | 0.29
CG15425 | DRSC00440 | 0.49
CG18418 | DRSC08535 | 0.34
Rx | DRSC03837 | 0.32
Rx | DRSC04652 | 0.8
vas (retired record) | DRSC22007 | 0.25
Lamtor2 + CG30120 | DRSC05726 | 0.5
Lamtor2 + CG30120 | DRSC06922 | -0.37
CG30491 | DRSC21472 | 0.24
Ork1 | DRSC20266 | -0.05
CG15093 | DRSC06522 | 0.21
His2Av | DRSC16702 | 0.05
foxo | DRSC13017 | -3.87
foxo | DRSC15463 | 0.41

Look-ups from the list:
Entry for Rh4 [DRSC11268] in “z-score, replicate 1”: 0.31
For “z-score, replicate 1”, CG13559 [DRSC04197] shows 0.06
Value for kek3 [DRSC03553] under “z-score, replicate 1”: 0.51
ix [DRSC06325], z-score, replicate 1 = 0.2
Cyp9b2 [DRSC07390], z-score, replicate 1: -0.05
For “z-score, replicate 1”, CG15912 [DRSC18105] reads 0.29
